“And” between values parts separate entries of the source, which are not always exact repeats. Identical values can stand only once.
Columns and labels:
[1] = Quality controls: accuracy and precision, batch acceptance (cholestyramine-treated human saliva); conditions: for % Bias QC-Mid, batch acceptance / Mean concentration QC-Mid, batch acceptance / % Bias QC-High, batch acceptance / Mean concentration QC-High, batch acceptance: run 35; for Mean quality control concentration: n 9
[2] = Matrix effects on quantification (untreated human saliva); conditions: for Concentration, Control Blank (endogenous level) / Mean concentration Control Blank (endogenous level): unspiked
[3] = cholestyramine-treated human saliva, nominal 8.00 ng/mL
[4] = cholestyramine-treated human saliva, nominal 80.0 ng/mL
[5] = cholestyramine-treated human saliva, nominal 8.00 ng/mL, run 34
[6] = cholestyramine-treated human saliva, nominal 80.0 ng/mL, run 34
[7] = untreated human saliva, nominal 80.0 ng/mL, run 34
[8] = nominal 8.00 ng/mL, cholestyramine-treated human saliva
[9] = nominal 8.00 ng/mL, cholestyramine-treated human saliva, runs 31, 32, 33
[10] = nominal 80.0 ng/mL, cholestyramine-treated human saliva
[11] = nominal 8.00 ng/mL, cholestyramine-treated human saliva, run 34
[12] = nominal 80.0 ng/mL, cholestyramine-treated human saliva, run 34
[13] = nominal 80.0 ng/mL, untreated human saliva, run 34
[14] = nominal 8.00 ng/mL, one value per run 31, 32, 33

C[C@H](CCC(=O)NCCS(=O)(=O)O)[C@H]1CC[C@H]2[C@@H]3CC[C@@H]4C[C@H](O)CC[C@]4(C)[C@H]3C[C@H](O)[C@]12C [Taurodeoxycholic Acid, Taurodeoxycholic acid]
Inter-Run % CV ([1]; QC-High, nominal 80.0 ng/mL): 7.2%
Inter-Run Mean ([1]; QC-High, nominal 80.0 ng/mL): 85.0 ng/mL
Inter-Run % CV ([1]; QC-LLOQ, nominal 0.500 ng/mL): 8.3%
Inter-Run Mean ([1]; QC-LLOQ, nominal 0.500 ng/mL): 0.553 ng/mL
Inter-Run % CV ([1]; QC-Mid, nominal 8.00 ng/mL): 6.6%
Inter-Run Mean ([1]; QC-Mid, nominal 8.00 ng/mL): 8.33 ng/mL
Batch Acceptance Quality Controls Concentration, Mean ([1]; Table 24, QC-High 80.0 ng/mL): 85.5 ng/mL
Batch Acceptance Quality Controls Concentration, Mean ([1]; Table 24, QC-Mid 8.00 ng/mL): 8.12 ng/mL
% Bias QC-Mid, batch acceptance [1, 3]: 6.6%
Mean concentration QC-Mid, batch acceptance [1, 3]: 8.53 ng/mL
% Bias QC-High, batch acceptance [1, 4]: 5.3%
Mean concentration QC-High, batch acceptance [1, 4]: 84.2 ng/mL
% Bias QC-Mid [2, 5]: 0.1%
Concentration QC-Mid [2, 5]: 8.14 ng/mL and 7.94 ng/mL and 7.95 ng/mL
Mean concentration QC-Mid [2, 5]: 8.01 ng/mL
% Bias QC-High [2, 6]: −1.0%
Concentration QC-High [2, 6]: 78.8 ng/mL and 78.2 ng/mL and 80.5 ng/mL
Mean concentration QC-High [2, 6]: 79.2 ng/mL
% Bias QC-High [2, 7]: 0.9%
Concentration QC-High [2, 7]: 82.4 ng/mL and 77.7 ng/mL and 79.8 ng/mL and 80.1 ng/mL and 81.8 ng/mL and 82.3 ng/mL
Mean concentration QC-High [2, 7]: 80.7 ng/mL
Concentration, Control Blank (endogenous level) ([2]; untreated human saliva, run 34): BQL (Below quantitation limit (<0.500 ng/mL))
Mean concentration Control Blank (endogenous level) ([2]; untreated human saliva, run 34): BQL (Below quantitation limit (<0.500 ng/mL))

C[C@H](CCC(=O)NCC(=O)O)[C@H]1CC[C@H]2[C@@H]3[C@H](O)C[C@@H]4C[C@H](O)CC[C@]4(C)[C@H]3C[C@H](O)[C@]12C [Glycocholic Acid, Glycocholic acid]
Intra-Run Mean concentration QC-LLOQ ([1]; nominal 0.500 ng/mL, cholestyramine-treated human saliva, runs 31, 32, 33): 0.574 ng/mL and 0.485 ng/mL and 0.497 ng/mL
Inter-Run % Bias QC-Mid [1, 8]: −2.4%
% Bias QC-Mid, batch acceptance [1, 8]: 2.3%
Mean concentration QC-Mid, batch acceptance [1, 8]: 8.18 ng/mL
Intra-Run % Bias QC-Mid [1, 9]: 1.0% and −2.2% and −5.9%
Intra-Run Mean concentration QC-Mid [1, 9]: 8.08 ng/mL and 7.82 ng/mL and 7.53 ng/mL
Inter-Run % Bias QC-High [1, 10]: 0.1%
% Bias QC-High, batch acceptance [1, 10]: −1.0%
Mean concentration QC-High, batch acceptance [1, 10]: 79.2 ng/mL
Intra-Run Mean concentration QC-High ([1]; nominal 80.0 ng/mL, cholestyramine-treated human saliva, runs 31, 32, 33): 80.5 ng/mL and 80.3 ng/mL and 79.4 ng/mL
% Bias QC-Mid [2, 11]: 3.7%
Mean concentration QC-Mid [2, 11]: 8.30 ng/mL
Concentration QC-Mid ([2]; nominal 8.00 ng/mL, cholestyramine-treated human saliva, run 34, single determinations): 8.56 ng/mL and 8.30 ng/mL and 8.04 ng/mL
% Bias QC-High [2, 12]: 1.4%
Mean concentration QC-High [2, 12]: 81.1 ng/mL
Concentration QC-High ([2]; nominal 80.0 ng/mL, cholestyramine-treated human saliva, run 34, single determinations): 81.1 ng/mL and 81.4 ng/mL and 80.8 ng/mL
% Bias QC-High [2, 13]: 0.4%
Mean concentration QC-High [2, 13]: 80.4 ng/mL
Concentration QC-High ([2]; nominal 80.0 ng/mL, untreated human saliva, run 34, single determinations): 80.6 ng/mL and 77.6 ng/mL and 79.9 ng/mL and 82.1 ng/mL and 80.5 ng/mL and 81.4 ng/mL
Mean concentration Control Blank ([2]; untreated human saliva, not spiked (endogenous level), run 34): BQL (BQL: Below quantitation limit (0.500 ng/mL))
Concentration Control Blank ([2]; untreated human saliva, not spiked (endogenous level), run 34, single determinations): BQL (BQL: Below quantitation limit (0.500 ng/mL))

C[C@H](CCC(=O)NCCS(=O)(=O)O)[C@H]1CC[C@H]2[C@@H]3[C@H](O)C[C@@H]4C[C@H](O)CC[C@]4(C)[C@H]3C[C@H](O)[C@]12C [Taurocholic Acid, Taurocholic acid]
Batch Acceptance Quality Controls Concentration, Mean ([1]; Table 27, QC-High 80.0 ng/mL): 85.9 ng/mL
Batch Acceptance Quality Controls Concentration, Mean ([1]; Table 27, QC-Mid 8.00 ng/mL): 8.18 ng/mL
% Bias QC-Mid, batch acceptance [1, 3]: −0.4%
Mean concentration QC-Mid, batch acceptance [1, 3]: 7.97 ng/mL
% Bias QC-High, batch acceptance [1, 4]: −3.0%
Mean concentration QC-High, batch acceptance [1, 4]: 77.6 ng/mL
Inter-Run % Bias QC-Mid ([1]; nominal 8.00 ng/mL): −1.9%
Intra-Run % Bias QC-Mid [1, 14]: 2.7% and −1.8% and −6.6%
Intra-Run Mean QC-Mid [1, 14]: 8.21 ng/mL and 7.86 ng/mL and 7.48 ng/mL
Inter-Run % Bias QC-High ([1]; nominal 80.0 ng/mL): 2.5%
% Bias QC-Mid [2, 5]: 3.3%
Concentration QC-Mid [2, 5]: 8.81 ng/mL and 7.99 ng/mL and 7.98 ng/mL
Mean concentration QC-Mid [2, 5]: 8.26 ng/mL
% Bias QC-High [2, 6]: 1.0%
Concentration QC-High [2, 6]: 81.7 ng/mL and 80.3 ng/mL
Mean concentration QC-High [2, 6]: 80.8 ng/mL
% Bias QC-High [2, 7]: 1.7%
Concentration QC-High [2, 7]: 81.2 ng/mL and 80.2 ng/mL and 82.8 ng/mL and 81.6 ng/mL and 82.2 ng/mL
Mean concentration QC-High [2, 7]: 81.4 ng/mL
Concentration, Control Blank (endogenous level) ([2]; untreated human saliva, run 34): BQL (Below quantitation limit (<0.500 ng/mL))
Mean concentration Control Blank (endogenous level) ([2]; untreated human saliva, run 34): BQL (Below quantitation limit (<0.500 ng/mL))

C[C@H](CCC(=O)NCCS(=O)(=O)O)[C@H]1CC[C@H]2[C@@H]3[C@H](O)C[C@@H]4C[C@H](O)CC[C@]4(C)[C@H]3CC[C@]12C [Taurochenodeoxycholic Acid, Taurochenodeoxycholic acid]
Mean quality control concentration ([1]; Table 33, QC-High, nominal 80.0 ng/mL): 82.3 ng/mL
Mean quality control concentration ([1]; Table 33, QC-Mid, nominal 8.00 ng/mL): 7.84 ng/mL
Concentration, batch acceptance QC-Mid ([1]; nominal 8.00 ng/mL, Analytical Run 35, cholestyramine-treated human saliva, replicate): 9.45 ng/mL and 8.01 ng/mL and 8.00 ng/mL
Intra-Run % Bias, QC-High ([1]; nominal 80.0 ng/mL, Run 31): 23.0%
Intra-Run % Bias, QC-High ([1]; nominal 80.0 ng/mL, Run 32): 13.0%
Intra-Run % Bias, QC-High ([1]; nominal 80.0 ng/mL, Run 33): 5.8%
% Bias QC-Mid ([2]; Cholestyramine-Treated Human Saliva, nominal 8.00 ng/mL, Run 34): 4.7%
Mean concentration QC-Mid ([2]; Cholestyramine-Treated Human Saliva, nominal 8.00 ng/mL, Run 34, n 3): 8.37 ng/mL
Concentration QC-Mid ([2]; Cholestyramine-Treated Human Saliva, nominal 8.00 ng/mL, Run 34, replicate): 8.50 ng/mL and 8.41 ng/mL and 8.21 ng/mL
% Bias QC-High ([2]; Cholestyramine-Treated Human Saliva, nominal 80.0 ng/mL, Run 34): 3.1%
Mean concentration QC-High ([2]; Cholestyramine-Treated Human Saliva, nominal 80.0 ng/mL, Run 34, n 3): 82.5 ng/mL
Concentration QC-High ([2]; Cholestyramine-Treated Human Saliva, nominal 80.0 ng/mL, Run 34, replicate): 80.3 ng/mL and 83.1 ng/mL and 84.1 ng/mL
Mean concentration Control Blank (endogenous level) ([2]; Untreated Human Saliva, Run 34, n 6): BQL (Below quantitation limit (<0.500 ng/mL))
Concentration, Control Blank (endogenous level) ([2]; Untreated Human Saliva, Run 34, replicate): BQL (Below quantitation limit (<0.500 ng/mL))
% Bias QC-High ([2]; Untreated Human Saliva, nominal 80.0 ng/mL, Run 34): 5.6%
Mean concentration QC-High ([2]; Untreated Human Saliva, nominal 80.0 ng/mL, Run 34, n 6): 84.5 ng/mL
Concentration QC-High ([2]; Untreated Human Saliva, nominal 80.0 ng/mL, Run 34, replicate): 85.5 ng/mL and 82.5 ng/mL and 85.3 ng/mL and 85.8 ng/mL and 84.1 ng/mL and 83.7 ng/mL

CC(CCC(=O)NCC(=O)O)C1CCC2C3C(O)CC4CC(O)CCC4(C)C3CCC12C (stereo not shown) [Glycochenodeoxycholic Acid, Glycochenodeoxycholic acid]
Mean quality control concentration ([1]; Table 30, QC-High, nominal 80.0 ng/mL): 87.6 ng/mL
Mean quality control concentration ([1]; Table 30, QC-Mid, nominal 8.00 ng/mL): 8.47 ng/mL
% Bias QC-Mid, batch acceptance [1, 3]: 7.5%
Mean concentration QC-Mid, batch acceptance [1, 3]: 8.60 ng/mL
% Bias QC-High, batch acceptance [1, 4]: 3.6%
Mean concentration QC-High, batch acceptance [1, 4]: 82.9 ng/mL
Inter-Run % Bias QC-Mid ([1]; nominal 8.00 ng/mL): 2.3%
Intra-Run % Bias QC-Mid [1, 14]: 7.1% and −2.1% and 2.0%
Intra-Run Mean QC-Mid [1, 14]: 8.57 ng/mL and 7.83 ng/mL and 8.16 ng/mL
Inter-Run % Bias QC-High ([1]; nominal 80.0 ng/mL): 5.9%
% Bias QC-Mid [2, 5]: 3.7%
Concentration QC-Mid [2, 5]: 8.61 ng/mL and 8.30 ng/mL and 7.99 ng/mL
Mean concentration QC-Mid [2, 5]: 8.30 ng/mL
% Bias QC-High [2, 6]: 1.5%
Concentration QC-High [2, 6]: 79.5 ng/mL and 81.0 ng/mL and 83.1 ng/mL
Mean concentration QC-High [2, 6]: 81.2 ng/mL
% Bias QC-High [2, 7]: −0.5%
Concentration QC-High [2, 7]: 81.3 ng/mL and 78.9 ng/mL and 79.5 ng/mL and 79.8 ng/mL and 78.5 ng/mL
Mean concentration QC-High [2, 7]: 79.6 ng/mL
Concentration, Control Blank (endogenous level) ([2]; untreated human saliva, run 34): BQL (Below quantitation limit (<0.500 ng/mL))
Mean concentration Control Blank (endogenous level) ([2]; untreated human saliva, run 34): BQL (Below quantitation limit (<0.500 ng/mL))

C[C@H](CCC(=O)O)[C@H]1CC[C@H]2[C@@H]3[C@H](O)C[C@@H]4C[C@H](O)CC[C@]4(C)[C@H]3C[C@H](O)[C@]12C [Cholic Acid, Cholic acid]
% Bias ([2]; Cholestyramine-Treated Human Saliva, QC-High, nominal 80.0 ng/mL): −0.7%
% Bias ([2]; Cholestyramine-Treated Human Saliva, QC-Mid, nominal 8.00 ng/mL): 2.1%
% Bias ([2]; Untreated Human Saliva, QC-High, spiked 80.0 ng/mL): −0.1%
